# Measurements taken from the supplement of paper PMC12819154, “High-throughput peptide-centric local stability assay extends protein–ligand identification to membrane proteins, tissues and bacteria” (Nature Structural & Molecular Biology, 2025).
# The chains behind the UniProt entries cited, without tags or fusion partners. Where a name states a change or a piece, a line headed by the entry shows the natural chain unless it says otherwise.
# UniProt Q9Z1D1, whole entry: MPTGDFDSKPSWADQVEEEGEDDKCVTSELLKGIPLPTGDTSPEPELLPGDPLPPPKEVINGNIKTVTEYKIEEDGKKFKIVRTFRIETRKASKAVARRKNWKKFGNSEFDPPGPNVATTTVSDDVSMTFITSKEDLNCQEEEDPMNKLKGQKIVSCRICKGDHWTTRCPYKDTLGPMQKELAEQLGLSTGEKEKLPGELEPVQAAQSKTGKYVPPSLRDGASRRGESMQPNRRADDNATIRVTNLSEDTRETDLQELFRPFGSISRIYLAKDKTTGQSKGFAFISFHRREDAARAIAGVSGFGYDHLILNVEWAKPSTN
# UniProt Q9WV18, whole entry: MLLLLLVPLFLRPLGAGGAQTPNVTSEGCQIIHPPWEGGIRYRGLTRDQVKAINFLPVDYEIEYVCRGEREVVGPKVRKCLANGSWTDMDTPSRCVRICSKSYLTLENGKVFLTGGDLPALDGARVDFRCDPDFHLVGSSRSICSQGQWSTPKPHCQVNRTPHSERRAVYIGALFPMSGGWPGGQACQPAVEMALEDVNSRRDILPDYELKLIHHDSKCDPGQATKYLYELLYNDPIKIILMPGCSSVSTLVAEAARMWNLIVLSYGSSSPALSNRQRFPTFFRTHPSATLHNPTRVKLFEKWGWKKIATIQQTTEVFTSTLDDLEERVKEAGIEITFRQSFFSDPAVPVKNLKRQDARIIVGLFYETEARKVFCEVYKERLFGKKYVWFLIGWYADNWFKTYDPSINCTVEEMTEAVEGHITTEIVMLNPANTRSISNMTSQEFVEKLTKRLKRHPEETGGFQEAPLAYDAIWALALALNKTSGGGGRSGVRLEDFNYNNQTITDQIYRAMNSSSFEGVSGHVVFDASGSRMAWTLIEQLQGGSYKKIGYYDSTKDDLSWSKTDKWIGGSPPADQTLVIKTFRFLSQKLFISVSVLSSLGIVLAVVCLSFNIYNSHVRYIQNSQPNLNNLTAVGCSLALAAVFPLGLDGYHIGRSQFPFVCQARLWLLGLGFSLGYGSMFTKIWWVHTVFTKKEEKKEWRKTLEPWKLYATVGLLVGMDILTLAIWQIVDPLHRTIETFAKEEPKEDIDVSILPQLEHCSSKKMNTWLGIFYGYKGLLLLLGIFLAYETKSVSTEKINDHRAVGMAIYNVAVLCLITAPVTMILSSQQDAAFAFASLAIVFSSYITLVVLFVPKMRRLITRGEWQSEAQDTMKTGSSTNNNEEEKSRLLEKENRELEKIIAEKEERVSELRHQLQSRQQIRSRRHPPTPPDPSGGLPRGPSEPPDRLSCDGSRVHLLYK
# UniProt Q9Z2I8: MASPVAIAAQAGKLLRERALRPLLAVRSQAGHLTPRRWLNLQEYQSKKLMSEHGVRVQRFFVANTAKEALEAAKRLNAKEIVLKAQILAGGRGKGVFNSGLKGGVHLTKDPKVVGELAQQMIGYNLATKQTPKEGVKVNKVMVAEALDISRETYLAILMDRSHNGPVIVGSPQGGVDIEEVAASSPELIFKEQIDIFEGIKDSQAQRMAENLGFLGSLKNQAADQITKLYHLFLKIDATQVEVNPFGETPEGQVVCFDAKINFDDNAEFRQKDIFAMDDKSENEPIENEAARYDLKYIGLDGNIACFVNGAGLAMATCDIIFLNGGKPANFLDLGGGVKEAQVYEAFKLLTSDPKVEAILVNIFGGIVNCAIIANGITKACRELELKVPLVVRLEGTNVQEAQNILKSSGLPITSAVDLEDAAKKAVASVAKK
# UniProt Q9Z2Y3: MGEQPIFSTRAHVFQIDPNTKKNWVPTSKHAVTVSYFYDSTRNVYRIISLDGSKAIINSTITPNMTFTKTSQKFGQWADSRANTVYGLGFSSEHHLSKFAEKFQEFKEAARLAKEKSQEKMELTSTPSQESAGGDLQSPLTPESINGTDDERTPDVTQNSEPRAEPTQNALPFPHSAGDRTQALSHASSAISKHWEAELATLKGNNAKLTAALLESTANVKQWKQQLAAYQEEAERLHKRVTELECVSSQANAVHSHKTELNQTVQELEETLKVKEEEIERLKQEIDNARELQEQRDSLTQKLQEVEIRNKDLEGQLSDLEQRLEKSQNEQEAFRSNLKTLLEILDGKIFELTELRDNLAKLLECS
# UniProt Q9WVL3: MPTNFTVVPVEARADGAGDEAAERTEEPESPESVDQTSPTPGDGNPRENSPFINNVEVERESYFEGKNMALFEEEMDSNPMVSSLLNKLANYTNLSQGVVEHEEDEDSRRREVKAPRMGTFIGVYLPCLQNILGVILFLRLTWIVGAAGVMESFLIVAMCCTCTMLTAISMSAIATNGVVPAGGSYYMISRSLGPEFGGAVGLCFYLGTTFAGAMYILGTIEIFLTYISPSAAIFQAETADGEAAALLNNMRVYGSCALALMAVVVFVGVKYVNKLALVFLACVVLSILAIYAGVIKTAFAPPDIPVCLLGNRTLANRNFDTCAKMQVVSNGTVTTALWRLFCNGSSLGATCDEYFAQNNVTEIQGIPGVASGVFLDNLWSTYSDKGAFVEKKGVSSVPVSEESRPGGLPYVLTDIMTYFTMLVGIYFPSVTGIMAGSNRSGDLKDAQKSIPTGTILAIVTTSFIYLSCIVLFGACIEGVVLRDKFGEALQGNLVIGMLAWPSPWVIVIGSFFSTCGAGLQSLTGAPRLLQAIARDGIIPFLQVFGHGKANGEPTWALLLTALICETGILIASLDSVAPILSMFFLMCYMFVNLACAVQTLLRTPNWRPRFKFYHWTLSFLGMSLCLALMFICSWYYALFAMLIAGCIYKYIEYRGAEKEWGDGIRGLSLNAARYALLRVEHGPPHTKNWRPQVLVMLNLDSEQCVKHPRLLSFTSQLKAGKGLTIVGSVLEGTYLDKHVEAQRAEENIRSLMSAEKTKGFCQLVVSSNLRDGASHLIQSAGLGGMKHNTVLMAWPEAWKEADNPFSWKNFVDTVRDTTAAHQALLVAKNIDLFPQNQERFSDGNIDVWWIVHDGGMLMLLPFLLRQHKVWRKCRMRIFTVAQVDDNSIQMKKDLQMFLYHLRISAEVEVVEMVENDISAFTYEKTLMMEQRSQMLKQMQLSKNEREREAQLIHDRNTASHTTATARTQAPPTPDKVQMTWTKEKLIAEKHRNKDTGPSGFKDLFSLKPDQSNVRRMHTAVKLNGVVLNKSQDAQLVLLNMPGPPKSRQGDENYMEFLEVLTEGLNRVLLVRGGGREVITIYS
# UniProt Q9WU28, whole entry: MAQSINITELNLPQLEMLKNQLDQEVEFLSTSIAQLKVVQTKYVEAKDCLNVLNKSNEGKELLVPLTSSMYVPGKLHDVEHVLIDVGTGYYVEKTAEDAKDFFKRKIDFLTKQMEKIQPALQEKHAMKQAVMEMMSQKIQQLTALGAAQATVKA
# UniProt Q9WUA3: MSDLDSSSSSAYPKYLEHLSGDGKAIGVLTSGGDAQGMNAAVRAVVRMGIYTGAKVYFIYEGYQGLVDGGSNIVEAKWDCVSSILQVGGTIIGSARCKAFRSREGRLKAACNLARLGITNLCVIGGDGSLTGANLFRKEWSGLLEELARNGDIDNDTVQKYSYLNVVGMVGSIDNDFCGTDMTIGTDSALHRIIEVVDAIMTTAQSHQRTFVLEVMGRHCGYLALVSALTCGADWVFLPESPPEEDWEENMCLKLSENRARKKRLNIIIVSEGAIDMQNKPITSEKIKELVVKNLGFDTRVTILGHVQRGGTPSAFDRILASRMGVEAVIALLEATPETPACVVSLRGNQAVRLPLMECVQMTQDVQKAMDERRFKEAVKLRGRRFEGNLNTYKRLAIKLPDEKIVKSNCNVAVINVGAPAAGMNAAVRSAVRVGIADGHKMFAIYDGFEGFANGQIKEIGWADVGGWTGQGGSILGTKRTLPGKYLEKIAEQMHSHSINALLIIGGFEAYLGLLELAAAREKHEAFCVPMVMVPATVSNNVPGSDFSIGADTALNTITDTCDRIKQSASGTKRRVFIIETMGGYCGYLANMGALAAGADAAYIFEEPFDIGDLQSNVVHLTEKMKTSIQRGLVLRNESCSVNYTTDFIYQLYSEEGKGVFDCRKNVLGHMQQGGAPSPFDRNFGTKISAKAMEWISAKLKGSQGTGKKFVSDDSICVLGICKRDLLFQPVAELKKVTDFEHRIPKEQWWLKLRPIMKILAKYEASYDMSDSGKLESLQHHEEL
# UniProt Q9R013: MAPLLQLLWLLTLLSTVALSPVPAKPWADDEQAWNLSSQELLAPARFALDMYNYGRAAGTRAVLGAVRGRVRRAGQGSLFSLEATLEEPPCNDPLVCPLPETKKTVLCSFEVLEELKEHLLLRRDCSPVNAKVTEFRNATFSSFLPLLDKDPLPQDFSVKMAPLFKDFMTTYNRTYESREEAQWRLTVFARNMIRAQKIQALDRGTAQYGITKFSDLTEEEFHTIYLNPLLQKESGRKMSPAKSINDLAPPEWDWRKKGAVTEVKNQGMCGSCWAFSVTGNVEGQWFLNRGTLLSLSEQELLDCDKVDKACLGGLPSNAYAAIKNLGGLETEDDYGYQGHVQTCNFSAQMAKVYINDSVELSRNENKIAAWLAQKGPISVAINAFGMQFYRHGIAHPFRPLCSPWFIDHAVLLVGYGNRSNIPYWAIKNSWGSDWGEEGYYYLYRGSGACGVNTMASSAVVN
# UniProt Q9QZ85: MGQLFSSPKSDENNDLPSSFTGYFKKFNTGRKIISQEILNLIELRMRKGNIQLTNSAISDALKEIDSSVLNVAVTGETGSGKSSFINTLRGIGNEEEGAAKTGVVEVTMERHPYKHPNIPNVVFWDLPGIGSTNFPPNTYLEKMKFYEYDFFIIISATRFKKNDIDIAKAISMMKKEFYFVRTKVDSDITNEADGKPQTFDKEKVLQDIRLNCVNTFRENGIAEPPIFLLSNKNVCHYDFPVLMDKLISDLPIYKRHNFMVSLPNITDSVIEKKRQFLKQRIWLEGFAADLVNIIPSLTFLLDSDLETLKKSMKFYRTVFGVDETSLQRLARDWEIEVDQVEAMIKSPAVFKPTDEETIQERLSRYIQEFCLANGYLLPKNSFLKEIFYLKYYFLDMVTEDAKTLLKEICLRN
# UniProt Q9R1P4: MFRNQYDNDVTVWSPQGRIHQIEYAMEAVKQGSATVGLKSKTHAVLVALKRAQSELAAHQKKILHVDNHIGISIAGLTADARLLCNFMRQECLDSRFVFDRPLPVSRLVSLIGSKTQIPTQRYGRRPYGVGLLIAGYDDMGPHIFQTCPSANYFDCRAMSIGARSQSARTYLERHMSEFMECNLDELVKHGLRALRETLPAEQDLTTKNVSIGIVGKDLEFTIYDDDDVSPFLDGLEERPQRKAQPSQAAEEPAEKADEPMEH
# UniProt Q9R0Q4, whole entry: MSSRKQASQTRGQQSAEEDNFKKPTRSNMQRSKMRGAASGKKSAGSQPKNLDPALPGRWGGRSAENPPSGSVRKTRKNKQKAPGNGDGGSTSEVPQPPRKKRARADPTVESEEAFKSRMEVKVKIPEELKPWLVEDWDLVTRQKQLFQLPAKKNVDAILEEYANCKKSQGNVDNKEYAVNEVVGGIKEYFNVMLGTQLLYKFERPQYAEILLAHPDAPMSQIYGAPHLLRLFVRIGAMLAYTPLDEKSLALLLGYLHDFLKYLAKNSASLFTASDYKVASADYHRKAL
# UniProt Q9WUP7, whole entry: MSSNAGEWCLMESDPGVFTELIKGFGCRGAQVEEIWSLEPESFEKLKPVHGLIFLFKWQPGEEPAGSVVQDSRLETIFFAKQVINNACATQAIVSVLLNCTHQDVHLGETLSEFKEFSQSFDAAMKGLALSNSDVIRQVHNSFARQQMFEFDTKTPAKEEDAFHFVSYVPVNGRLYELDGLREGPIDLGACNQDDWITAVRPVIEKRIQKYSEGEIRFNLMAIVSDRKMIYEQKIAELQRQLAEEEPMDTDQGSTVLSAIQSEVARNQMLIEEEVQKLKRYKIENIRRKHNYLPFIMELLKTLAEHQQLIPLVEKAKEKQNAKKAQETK
# The list shows a part of the results. Most entries show no effect beyond the scatter of the controls.
# Compound: CN[C@@H]1C[C@H]2O[C@@](C)([C@@H]1OC)n1c3ccccc3c3c4c(c5c6ccccc6n2c5c31)C(=O)NC4 [staurosporine]
# Assay: log2 fold change of pooled soluble protein (PISA), ligand vs vehicle (log2 ratio); higher = more thermally stabilized
# Details: ligand concentration: 20 uM; assay format: PISA pool 52.9/55.5/58.6 C
row,Target,log2 fold change of pooled soluble protein
1,UniProt Q9Z1D1,-0.025
2,UniProt Q9WVJ2,0.0478
3,UniProt Q9WV18,-0.504
4,UniProt Q9Z2I8,-0.0778
5,UniProt Q9Z2Y3,-0.12
6,UniProt Q9Z223,-0.0494
7,UniProt Q9QZN4,-0.0839
8,UniProt Q9QZ49,0.00938
9,UniProt Q9WVL3,0.131
10,UniProt Q9WU28,0.0503
11,UniProt Q9WUB4,-0.504
12,UniProt Q9Z2D6,0.133
13,UniProt Q9Z0K8,0.0791
14,UniProt Q9WUK2,-0.126
15,UniProt Q9Z224,-0.0362
16,UniProt Q9WUA3,-0.0193
17,UniProt Q9R013,0.0213
18,UniProt Q9R0M5,0.359
19,UniProt Q9Z0G9,0.217

row,Target,log2 fold change of pooled soluble protein
1,UniProt Q9QZ85,-0.0152
2,UniProt Q9QZQ1,0.0183
3,UniProt Q9Z2F7,-0.349
4,UniProt Q9R1P4,-0.099
5,UniProt Q9Z1X4,-0.0213
6,UniProt Q9R1K9,0.0411
7,UniProt Q9R0Q4,0.0384
8,UniProt Q9R1P3,0.0504
9,UniProt Q9WUP7,0.0349
10,UniProt Q9R269,-0.0303
11,UniProt Q9R0M6,-0.0146
12,UniProt Q9R1P0,-0.259
13,UniProt Q9WUM5,-0.105
14,UniProt Q9WUM4,0.0632
15,UniProt Q9R0P5,-0.0847
16,UniProt Q9Z0P4,0.15
17,UniProt Q9WTP2,-0.0296
18,UniProt Q9Z0N1,-0.0477
19,UniProt Q9Z1R2,-0.0169

# 3 entries from above, as tab-separated lines:
row	Target	log2 fold change of pooled soluble protein
4	UniProt Q9Z2I8	-0.0778
5	UniProt Q9Z2Y3	-0.12
13	UniProt Q9WUM5	-0.105
